# The list shows a part of the results.
# By UniProt entry, the sequences of proteins in these tests, tags left out.
# UniProt Q0JBA9, entry or part of it: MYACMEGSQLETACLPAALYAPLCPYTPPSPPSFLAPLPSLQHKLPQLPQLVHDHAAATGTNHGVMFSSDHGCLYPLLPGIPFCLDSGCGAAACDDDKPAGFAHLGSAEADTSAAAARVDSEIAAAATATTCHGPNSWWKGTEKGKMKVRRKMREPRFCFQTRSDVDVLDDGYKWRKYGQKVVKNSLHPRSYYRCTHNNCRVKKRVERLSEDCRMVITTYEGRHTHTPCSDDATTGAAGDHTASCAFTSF
# Molecular target: OsWRKY34 (Oryza sativa, UniProt Q0JBA9 1-250)
# Assay: protein-binding microarray (RPBM); PBS, 2% BSA, 51.3 ng/ul salmon testes DNA, 50 uM zinc acetate, 200 nM TF, 25 C, 1 h; high values mean tight binding
# Conditions: protein: recombinant; tags: N-terminal polyhistidine and DsRed monomer fusion (pET32a); label: CyDye5-dUTP incorporated in the synthesized complementary strand; 3' TTTTT single-stranded linker to array surface; dsDNA, one strand shown
# Method in brief: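 Polyhistidine-tagged DsRed fusions of transcription factors, joined at the N-terminus, were expressed in E. coli BL21-CodonPlus and isolated on Ni–NTA. They were incubated at 200 nM for 1 h at 25 °C on a custom Agilent array, double-stranded and BSA-blocked, in PBS with 2% BSA, salmon testes DNA and 50 µM zinc acetate. The binding signal is per-feature fluorescence intensity (arbitrary units) read on an Axon 4000B scanner after washing.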
row,Sequence,binding signal
1,CCCCGCACTCCCGGAGACCCCGACCCAATACCGTCATTTCCGGAGTCACCTAGTGCAG,8450 fluorescence intensity (a.u.)
2,TGGTGGCAGATCGGACAACGGGGAAGACGGTGGGGCGGGGCGGAGTCACCTAGTGCAG,9690 fluorescence intensity (a.u.)
3,TATCTAAAGTATCTTTTATTTATTAATACTATCTCTTTGACGGAGTCACCTAGTGCAG,8960 fluorescence intensity (a.u.)
4,AGGAGGGGAGAGACCTAACAGTGGGCCCCAACAATTTTTTCGGAGTCACCTAGTGCAG,8580 fluorescence intensity (a.u.)
5,CTCCATCGTCTGTCAGTCCAATGCGAGCTACATACCGAGACGGAGTCACCTAGTGCAG,9190 fluorescence intensity (a.u.)
6,GGTTGTGCATTATATTATGGAATGGAGGGAGTACTTATCACGGAGTCACCTAGTGCAG,8840 fluorescence intensity (a.u.)
7,CTAGGCTCCTTTTTTTTTTACGAAAACAGTGTTGACTCCTCGGAGTCACCTAGTGCAG,8370 fluorescence intensity (a.u.)
8,TCCTCTCTTCTTCTTCTTCTTCTTCTTCTTCTTCTTCTTCCGGAGTCACCTAGTGCAG,8480 fluorescence intensity (a.u.)
9,CTTTTTTTTTTGTTGGGTGGCATTTTAGTATGTTTCTTTTCGGAGTCACCTAGTGCAG,14800 fluorescence intensity (a.u.)
10,TTTTGCTACTCCTTCGTTCTCAGTATCCAAATTTAAATTTCGGAGTCACCTAGTGCAG,9900 fluorescence intensity (a.u.)
11,GAATACTTGTCAAATCGCTCAGGATTTTACTGCGGGGCGGCGGAGTCACCTAGTGCAG,8050 fluorescence intensity (a.u.)
12,TCTTCCTTTCCTTTCCTTTCCTTTCCTTGGCGGCCGGCCACGGAGTCACCTAGTGCAG,10400 fluorescence intensity (a.u.)
13,GCCGCCGCCTCCGCCGCCAGCCTCGCCACCTCCTGCGCCGCGGAGTCACCTAGTGCAG,9060 fluorescence intensity (a.u.)
14,AAGAAGTGGTACATATCGTTTTATCTCCATGCATTTCATCCGGAGTCACCTAGTGCAG,9700 fluorescence intensity (a.u.)
15,TATTTCCCAATCTCAATAGTCAATAGTATACTTCTTCTCTCGGAGTCACCTAGTGCAG,8840 fluorescence intensity (a.u.)
16,TGTCCGCCTTTGATCTCGCTCAAATTCTTCCCAGCCTTATCGGAGTCACCTAGTGCAG,9870 fluorescence intensity (a.u.)
17,AACATATAAACTCAAATCTCCAATTGTTTCCGCTACAAATCGGAGTCACCTAGTGCAG,8100 fluorescence intensity (a.u.)
18,AGGAGGGGCAAAAATTAATGTGTAGGTAAAACTTTTATATCGGAGTCACCTAGTGCAG,11000 fluorescence intensity (a.u.)
19,CGCCCTTCTACCCGGACGACCTCGCTGACTTGCCCGACCACGGAGTCACCTAGTGCAG,8970 fluorescence intensity (a.u.)
20,GCGGGTTTCGTTTTCTCACTCGCTTGCTTAGCTCGATTGCCGGAGTCACCTAGTGCAG,10400 fluorescence intensity (a.u.)
21,TTCTCTCTCTCGATCGAACAGGGGTAGGGAAGCGATTAACCGGAGTCACCTAGTGCAG,8460 fluorescence intensity (a.u.)
22,TTTTTATTCGTTGCTATGCATCATGCTTGATCCTTGCTCACGGAGTCACCTAGTGCAG,9440 fluorescence intensity (a.u.)
23,AACCCTGATTTCCGTGCTCAACGTTTGACCGTCCGTCTTGCGGAGTCACCTAGTGCAG,12600 fluorescence intensity (a.u.)

# Another view of part of the listing above:
row	Sequence	binding signal
9	CTTTTTTTTTTGTTGGGTGGCATTTTAGTATGTTTCTTTTCGGAGTCACCTAGTGCAG	14800 fluorescence intensity (a.u.)
10	TTTTGCTACTCCTTCGTTCTCAGTATCCAAATTTAAATTTCGGAGTCACCTAGTGCAG	9900 fluorescence intensity (a.u.)
